Patent publication US20250177532A1, “TEMPERATURE-SENSITIVE HYDROGEL FOR CANCER TREATMENT CAPABLE OF PHOTOTHERMAL THERAPY AND PREPARATION METHOD THEREFOR” (KOREA NATIONAL UNIVERSITY OF TRANSPORTATION …, priority 2022, published 2025)

Assay: Nitric oxide release from NO donors under near-infrared laser (Griess assay)
Format: physicochemical
Details: 808 nm, 1.5 W/cm^2

For `N[C@@H](CSN=O)C(=O)O` [CysNO, S-nitrosocysteine], the “NO release with/without laser (Griess assay at different time points)” value was “NO release will continue only after Laser irradiation”.
